Reference: publication PMC11348715 (Chemical Science, 2024)

Assay: Caco-2 permeability assay
Type: in vitro ADME
Details: human

A Papp A→B at 10 µM of 0.121 ×10⁻⁶ cm/s was found for `CC(C)NCC(O)COc1ccc(CC(N)=O)cc1` (stereo not shown) [atenolol] in this work.
